Assay results published in PubChem BioAssay AID1487 (National Center for Advancing Translational Sciences (NCATS), 2009).
This is one part of the list. These are further read-outs of the screen, such as a control signal, another cell line or another target. No call is given for them. Compounds called inactive in the main read-out are mostly missing here. Potencies come from curve fits of mixed quality, noted in brackets.

Assay: qHTS Assay for Modulators of Lamin A Splicing
Conditions: HeLa LMNA splicing GFP/RFP minigene ratio, 48 h
Procedure, shortened: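 Read-out is the ratio of GFP to DsRed2 object intensity, acquired by 488 nm laser-scanning cytometry on HeLa lamin A-EGFP minigene reporter cells. Compound incubation 48 hrs at 37 °C in Opti-MEM with 2% FBS; DMSO 0.5% final.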

[1] = measured here: RFP viability control channel
[2] = measured here: GFP splicing reporter channel

Compound	AC50 [1]	AC50 [2]
COc1cc2c(cc1O)CC[C@@H]1[C@@H]2CC[C@]2(C)[C@@H](O)CC[C@@H]12	8.91 µM [falling, partial curve]	–
O=[N+]([O-])c1ccc(OCc2cccc(COc3ccc([N+](=O)[O-])cc3)n2)cc1	12.6 µM [rising, partial curve]	17.8 µM [rising, partial curve, poor fit]
COC(=O)c1ccc(-c2ccc(/C=N/N3C(=O)C4C5C=CC(C6CC56)C4C3=O)o2)cc1 (stereo not drawn)	0.316 µM [rising, full curve]	–
CC1CCN(C(=O)/C=C/c2ccc(C(C)(C)C)cc2)CC1	25.1 µM [rising, single point]	12.6 µM [rising, partial curve]
CCc1nnc(NC(=O)CCN(c2cc(C)cc(C)c2)S(=O)(=O)c2ccc(Cl)cc2)s1	2.51 µM [rising, full curve, poor fit]	–
CCOc1ccc(C2C(C#N)=C(N)Oc3n[nH]c(C)c32)cc1OC(=O)C1CC1 (stereo not drawn)	0.224 µM [falling, full curve, poor fit]	–
C[C@]12CC[C@H]3c4ccc(O)cc4CC[C@@H]3[C@H]1CC[C@@H]2OP(=O)(O)O	35.5 µM [falling, single point]	4.47 µM [rising, full curve, poor fit]
CC(C)Cn1c(=O)c(C(=O)NCc2ccccn2)c(O)c2ccccc21	15.8 µM [rising, single point]	–
O=C(CCN1CCc2ccccc21)c1ccc2c(c1)OCCO2	12.6 µM [rising, partial curve]	3.55 µM [rising, full curve, poor fit]
O=C(CSc1nc2c([nH]c3ccccc32)c(=O)n1-c1ccc(Cl)cc1)N1CCOCC1	0.0708 µM [rising, full curve, poor fit]	–
Cc1nc(SCC(=O)NCc2ccc3c(c2)OCO3)c(C#N)c2c1CCCC2	17.8 µM [rising, single point]	31.6 µM [rising, single point]
Cc1ccc(-c2nnn(CC(=O)Nc3ccccc3N3CCOCC3)n2)cc1	25.1 µM [rising, single point]	12.6 µM [rising, single point]
Cc1ccc(C(=O)N(CC(=O)NC2CCCCC2)c2ccccc2F)s1	–	0.0251 µM [rising, full curve, poor fit]
O=C(Nc1ccc(Cl)c(Cl)c1)OCc1cccnc1	25.1 µM [rising, single point]	–
S=C(Nc1ccc(Cl)cc1)N1CCCCC1	20 µM [rising, single point]	17.8 µM [rising, single point]
CC(C)(C)NC(=O)NC(=O)CN1CCC(Cc2ccccc2)CC1	20 µM [rising, single point]	11.2 µM [rising, partial curve, poor fit]
Cc1ccc(-n2nc(C)c(NC(=O)CCl)c2C)cc1C	2.24 µM [falling, partial curve, poor fit]	–

Compound	AC50 [1]	AC50 [2]
Cn1ccnc1/C(=N\NC(=O)c1ccccc1)c1cccc([N+](=O)[O-])c1	0.794 µM [falling, single point]	–
O=C(Nc1cccc(Cl)c1)OCc1cncs1	17.8 µM [rising, single point]	–
Cc1ccc(C(=O)c2ccccc2C(=O)OCC(=O)NC(C)(C)C)cc1	35.5 µM [rising, partial curve, poor fit]	–
NC(=NCc1ccc(Cl)c(Cl)c1)NC(=O)c1nc(Cl)c(N)nc1N	8.91 µM [falling, partial curve, poor fit]	15.8 µM [falling, partial curve]
C/C(CC(=O)NCc1ccco1)=N\NC(=O)COc1ccc(Cl)cc1Cl	0.0251 µM [falling, full curve, poor fit]	0.0794 µM [falling, full curve, poor fit]
CC(=O)/C=C/n1c(=S)oc2ccccc21	6.31 µM [falling, single point]	5.62 µM [falling, single point]
O=C(NC1CCCc2ccccc21)c1cccc(S(=O)(=O)N2CCN(c3ccccc3)CC2)c1 (stereo not drawn)	11.2 µM [rising, single point]	–
Fc1ccc(N2CCN(Cc3cnc(N4CCOCC4)s3)CC2)cc1	6.31 µM [falling, partial curve, poor fit]	–
CCCCS(=O)(=O)/C=C\C1C2C=CC(C2)C1S(=O)(=O)CCCC (stereo not drawn)	0.00708 µM [falling, full curve]	–
O=[N+]([O-])c1cc(C(F)(F)F)cc([N+](=O)[O-])c1NCCCNc1ccc([N+](=O)[O-])c2cccnc12	0.1 µM [rising, full curve, poor fit]	3.98 µM [rising, partial curve]
Cc1ccc(NC(=O)C(=O)NCCN2CCN(S(=O)(=O)c3ccccc3)CC2)cc1C	–	3.16 µM [falling, full curve, poor fit]
COc1cc(/C=C/CN2CCN(CCC(C)C)C(CCO)C2)ccc1O (stereo not drawn)	–	0.00316 µM [rising, full curve, poor fit]
CNC(=O)c1c(NC(=O)/C=C/c2ccccc2Cl)sc2c1CCC2	0.0224 µM [rising, full curve, poor fit]	0.0398 µM [rising, full curve, poor fit]
CC(C)N1CCN(CC#Cc2ccccc2)CC1CCO (stereo not drawn)	–	0.1 µM [falling, full curve, poor fit]
O=C(O)[C@H](O)[C@@H](O)[C@H](O)[C@H](O)CO	0.2 µM [rising, full curve, poor fit]	–
CCN(CC)c1ccc(/C=N/NC(=O)c2ccco2)cc1	5.62 µM [rising, full curve]	10 µM [rising, partial curve, poor fit]
CCCNC(=O)c1ccccc1NC(=O)c1ccccc1N(C)S(=O)(=O)c1ccccc1	15.8 µM [rising, single point]	–

In a second layout: 2 of the compounds above
Compound,AC50 [1],AC50 [2]
Fc1ccc(N2CCN(Cc3cnc(N4CCOCC4)s3)CC2)cc1,"6.31 µM [falling, partial curve, poor fit]",–
CCCCS(=O)(=O)/C=C\C1C2C=CC(C2)C1S(=O)(=O)CCCC (stereo not drawn),"0.00708 µM [falling, full curve]",–
